In brackets after ≈: the same amount, converted by molar mass.
Tested on: C. albicans
Test: Yeast susceptibility testing (EUCAST E.DEF 7.3.2 broth microdilution), C. albicans
Type: cell-based
Settings: Candida albicans; C. albicans isolates (n=5); 24 hours read; MIC = growth inhibited by ≥50% (Amphotericin ≥90%); read-out: MIC geometric mean
Method: AST was used to determine a Minimum Inhibitory Concentration (MIC) value for each antifungal agent on each strain of Candida. Three comparator drugs were also tested. This allowed the effectiveness of RO-101 gel to be compared to common antifungal drugs often used to treat VVC. Antifungal agents and their concentrations were as follows: RO-101 gel (1×, 2×, 10×, 20×: 1×=0.005%, 2×=0.01%, 10×=0.05% and 20×=0.1% Gox) (1 to 500 mg/L), SurgihoneyRO (1 to 500 mg/L), RO-101 gel 0% negative control (0% Gox) (1 to 500 mg/L), Fluconazole (0.125 to 64 mg/L), Itraconazole (0.015 to 8 mg/L) and Amphotericin (0.015 to 8 mg/L). The EUCAST E.DEF 7.3.2 (EUCAST, 2022a) method for yeast susceptibility testing was followed where possible.
Stock solutions of drugs were prepared with RPMI 1640 medium with 2% glucose. This was prepared by dissolving 20.8 g of RPMI 1640 powder (Sigma, Cat. No. R-6504), 69.1 g of morpholinopropanesulfonic acid (MOPS) (Melford, Cat. No. B2003) and 36 g of glucose (Sigma, Cat. No. G7528) in 800 ml of pharmacy water (Appleton Woods). 10M sodium hydroxide (Sigma, S8045) was added to adjust the pH to 7, and then the RPMI was filter sterilised. De Man, Rogosa & Sharpe (MRS) broth was used to grow the Lactobacillus isolates. MRS broth was prepared by dissolving 51 g of MRS powder (Sigma, 69966) in 1 litre of pharmacy water. 1 ml of Tween 80 (Sigma, P8074) was then added. […]

MIC: 0.047 µg/mL (≈ 0.0509 µM)
SMILES: C[C@@H]1[C@H](O)[C@@H](C)/C=C/C=C/C=C/C=C/C=C/C=C/C=C/[C@H](O[C@@H]2O[C@H](C)[C@@H](O)[C@H](N)[C@@H]2O)C[C@@H]2O[C@](O)(C[C@@H](O)C[C@@H](O)[C@H](O)CC[C@@H](O)C[C@@H](O)CC(=O)O[C@H]1C)C[C@H](O)[C@H]2C(=O)O [Amphotericin]
